Our source for the AC50 values is PubChem BioAssay AID1487 (National Center for Advancing Translational Sciences (NCATS), 2009).

This test is described as follows: qHTS Assay for Modulators of Lamin A Splicing. The settings on record: HeLa LMNA splicing GFP/RFP minigene ratio, 48 h. In short, it runs like this:
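S3 HeLa stable clones carrying a lamin A-EGFP splicing minigene plus DsRed2 were seeded at 600 cells/well in Opti-MEM with 2% FBS, pin-dosed and incubated 48 h at 37°C. Acumen cytometry (488 nm) gave the GFP/RFP total-intensity ratio.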
A general note: qHTS replaces the single test concentration by a dilution series.

Setting [1] is: measured here: GFP splicing reporter channel.
Where [2] appears, read: measured here: RFP viability control channel.

This is one part of the list. The main result of the screen is listed elsewhere. These columns were measured beside it and carry no call. Most of these compounds were active or inconclusive in the main read-out, so they are no random draw. The note in brackets gives the kind of curve behind each potency; many fits are weak.

Take `Cc1nc2c(C(=O)NCc3ccccc3)cnn2c(C)c1Cc1ccc(F)cc1`: the AC50 (in general, the midpoint of the concentration-response curve, whichever way the signal moves) under setting [1] was 11.2 µM [falling, partial curve] and the AC50 under setting [2] was 11.2 µM [falling, partial curve].

With `CCOC(=O)n1c(=O)[nH]c2ccc(Br)cc21`, the AC50 under setting [1] is 0.631 µM [rising, single point].

In the case of `COc1ccccc1N(Cc1cc2cccc(C)c2[nH]c1=O)C(=O)C(C)C`, under setting [2], the AC50 was 35.5 µM [rising, single point].

Turning to `CCC(C)n1cnc2c(c1=O)c1nc3ccccc3nc1n2Cc1ccc(OC)cc1` (stereo not drawn), the AC50 runs as follows: under setting [1], 35.5 µM [falling, single point]; under setting [2], 35.5 µM [falling, single point].

With `Cc1ccc(O)c(N=NC2=C(O)CC(C)(C)CC2=O)c1`, the AC50 under setting [1] was 0.0158 µM [rising, full curve, poor fit] and the AC50 under setting [2] is 17.8 µM [rising, partial curve].

Turning to `O=C(c1cccs1)c1no[n+]([O-])c1C(=O)c1cccs1`, the AC50 under setting [2] is 0.0158 µM [falling, full curve, poor fit].

As for `COc1ccc2[nH]cc(CC(=O)O)c2c1`, under setting [1], the AC50 was 0.0708 µM [falling, full curve, poor fit].

Turning to `c1cncc(-c2nc(NCCN3CCOCC3)c3ccccc3n2)c1`, the AC50 under setting [2] is 35.5 µM [rising, single point].

In the case of `COCCOC(=O)/C(=C/c1ccc(OC(=O)c2ccccc2)cc1)C(C)=O`, under setting [2], the AC50 is 14.1 µM [rising, single point].

Consider `O=C(NNC(=O)c1cccc(Br)c1)C(=O)N1CCCCC1`, for which the AC50 reads like this: under setting [1], 0.00447 µM [falling, full curve, poor fit]; under setting [2], 0.00447 µM [falling, full curve, poor fit].

Consider `O=C(CCSCCc1ccccn1)Nc1cc(F)ccc1F`, for which the AC50 under setting [1] was 6.31 µM [rising, single point].

With `COc1ccc(C2CC(c3ccccc3OC(C)=O)=NN2C(=O)/C=C/c2ccccc2)cc1OC` (stereo not drawn), under setting [2], the half-maximal activity concentration (AC50) is 22.4 µM [rising, single point].

As to `CCCC[n+]1c(C)sc2ccc(C)cc21`, the AC50 under setting [1] is 0.0708 µM [rising, full curve, poor fit].

As to `COc1ccc(-n2c(C)cc(/C=C3\SC(=S)NC3=O)c2C)cc1`, under setting [1], the concentration at half-maximal activity (AC50) is 35.5 µM [rising, partial curve, poor fit].

Take `Cc1ccc(C)c(N2CCN(S(=O)(=O)c3ccc4c(c3)CCC(=O)N4)CC2)c1`: the AC50 is 6.31 µM [rising, single point] under setting [1] and 10 µM [rising, partial curve] under setting [2].

Turning to `O=C(CSc1ncnc2ccccc12)Nc1ccc2c(c1)OCCO2`, the AC50 under setting [2] was 31.6 µM [rising, single point].

For `COc1ccc(Cl)cc1NC(=O)c1cc(-c2ccccc2O)n[nH]1`, the AC50 under setting [1] is 2.51 µM [falling, partial curve, poor fit].

Consider `Cc1ccc(C)c(N2CCN(C(=O)C3CCCCN3S(=O)(=O)c3ccc(F)cc3)CC2)c1` (stereo not drawn), for which the AC50 under setting [2] is 31.6 µM [rising, single point].

For `CCCCOc1ccc(S(=O)(=O)Nc2cc(OC)ccc2OC)cc1`, the AC50 runs as follows: under setting [1], 11.2 µM [rising, partial curve]; under setting [2], 11.2 µM [rising, partial curve].

For `Cn1nc(C(F)(F)F)c(C(=O)Nc2ccc(F)cc2F)c1Cl`, the AC50 reads like this: under setting [1], 0.00562 µM [rising, full curve, poor fit]; under setting [2], 0.00447 µM [rising, full curve, poor fit].

As for `CCCOC(=O)/C(=C\c1ccc([N+](=O)[O-])o1)NC(=O)c1ccccc1`, under setting [2], the half-maximal activity concentration (AC50) is 35.5 µM [rising, single point].

`O=c1c(-c2ccc(Cl)cc2)nc2cnc(N3CCNCC3)nc2n1-c1ccccc1`: the AC50 is 17.8 µM [falling, partial curve] under setting [1] and 12.6 µM [falling, partial curve] under setting [2].

For the compound `CSC(=S)N/N=C/c1ccccc1`, the AC50 was 0.355 µM [rising, full curve, poor fit] under setting [1] and 4.47 µM [rising, partial curve] under setting [2].

`Cn1c(N/N=C/c2cc3ccccc3nc2Cl)nc2ccccc21`: the AC50 under setting [2] is 4.47 µM [rising, full curve].

On to `N#Cc1cc2c(nc1SCC1COc3ccccc3O1)CCC2` (stereo not drawn), for which the AC50 by setting is: under setting [1], 11.2 µM [rising, single point]; under setting [2], 14.1 µM [rising, single point].

For `CN1/C(=C\C(=O)CSc2ncn[nH]2)C(C)(C)c2ccccc21`, the AC50 by setting is: under setting [1], 17.8 µM [rising, single point]; under setting [2], 35.5 µM [rising, single point].

As for `Cc1ccc(NC(=O)C(=O)NC(C)C2COc3ccccc3O2)cc1` (stereo not drawn), the AC50 under setting [2] was 20 µM [falling, single point].

On to `S=c1[nH]nc(Cn2nnc3ccccc32)n1-c1ccccc1`, for which the AC50 under setting [1] is 5.01 µM [rising, partial curve, poor fit] and the AC50 under setting [2] was 2.82 µM [rising, partial curve].

`Cc1cc(C(=O)NCC2COc3ccccc3O2)c2ccccc2n1` (stereo not drawn): the AC50 under setting [1] was 25.1 µM [falling, partial curve, poor fit] and the AC50 under setting [2] is 0.00447 µM [falling, full curve, poor fit].

On to `CCN1CCCC1CNC(=O)c1ccc(Sc2ccccc2Cl)c([N+](=O)[O-])c1` (stereo not drawn), for which the AC50 reads like this: under setting [1], 35.5 µM [rising, single point]; under setting [2], 35.5 µM [rising, single point].

For the compound `Cc1sc2ncnc(NCCN3CCOCC3)c2c1C`, the AC50 under setting [2] is 14.1 µM [rising, single point].

In the case of `O=C(CCc1ccc(CCC(=O)c2cccs2)s1)c1cccs1`, under setting [2], the AC50 is 35.5 µM [rising, single point].

For the compound `CC(=O)c1sc(Nc2nc3cc4c(cc3s2)OCO4)nc1C`, the AC50 under setting [2] was 5.01 µM [rising, full curve, poor fit].

`Cc1c(Cl)cccc1NC(=O)c1oc2ccc(S(=O)(=O)N3CCCCCC3)cc2c1C`: the AC50 reads like this: under setting [1], 0.0708 µM [falling, partial curve, poor fit]; under setting [2], 0.00316 µM [falling, full curve, poor fit].

Regarding `Cc1sc2ncnc(N3CCN(CCOc4ccc(Cl)cc4)CC3)c2c1C`, the AC50 under setting [2] was 5.01 µM [rising, partial curve].

Regarding `N#CC1=C(N)Oc2cc(O)ccc2C1C1CCCCC1` (stereo not drawn), the AC50 is, setting by setting: under setting [1], 35.5 µM [rising, single point]; under setting [2], 25.1 µM [rising, single point].

On to `CCOc1ccc(C2C(=O)N(C3CCCCCC3)CC(=O)N2Cc2ccc(C)cc2)cc1OC` (stereo not drawn), for which the AC50 under setting [2] was 0.631 µM [falling, full curve, poor fit].

On to `O=C(Nc1nc2ccccc2s1)C1CCCN1S(=O)(=O)c1ccc(Cl)cc1` (stereo not drawn), for which the AC50 under setting [1] was 15.8 µM [rising, single point] and the AC50 under setting [2] is 15.8 µM [rising, partial curve].

For the compound `COc1ccc(C(=O)c2ccccc2)c(O)c1`, the AC50 was 0.000891 µM [falling, full curve, poor fit] under setting [1] and 35.5 µM [rising, single point] under setting [2].

On to `CCN(CC)C(=O)N(CC)Cc1ccccc1`, for which the AC50 reads like this: under setting [1], 0.0282 µM [falling, full curve, poor fit]; under setting [2], 2.82 µM [falling, single point].

On to `c1ccc(COC2CCCN(Cc3nc(Cc4ccccc4)no3)C2)cc1` (stereo not drawn), for which, under setting [2], the AC50 is 35.5 µM [rising, single point].

As to `O=C(Nc1cccc(S(=O)(=O)N2CCOCC2)c1)c1ccc2c(=O)n3c(nc2c1)CCCCC3`, the AC50 under setting [1] was 0.562 µM [rising, full curve, poor fit] and the AC50 under setting [2] is 2.24 µM [rising, partial curve, poor fit].

For `C[N+](C)(CCCOc1ccccc1)c1ccccc1`, the AC50 is, setting by setting: under setting [1], 0.316 µM [falling, full curve, poor fit]; under setting [2], 0.316 µM [falling, full curve, poor fit].

Turning to `CO/N=C/NC(=O)Cc1cn(-c2ncc(C(F)(F)F)cc2Cl)c2ccccc12`, the AC50 under setting [2] is 22.4 µM [rising, single point].

Consider `Cc1cc(C)cc(-n2ccn(CC(=O)NCCc3ccccc3)c(=O)c2=O)c1`, for which the AC50 under setting [2] is 0.00447 µM [falling, full curve, poor fit].

In the case of `COc1cccc(/C=N/NC(=S)Nc2cccc(C(=O)O)c2)c1O`, under setting [1], the AC50 was 1.26 µM [rising, single point].

With `CCN(CC)c1ccc(NC(=O)C2CC(=O)N(Cc3ccccc3)C2)cc1` (stereo not drawn), the AC50 under setting [2] was 1 µM [falling, full curve, poor fit].

Turning to `COc1ccccc1NC(=O)CSc1nc2n[nH]c(C)c2c(=N)n1-c1ccccc1Cl`, the AC50 under setting [2] was 10 µM [rising, partial curve].

In the case of `COc1ccc(/C(N)=N/OC(=O)CCCc2ccccc2)cc1OC`, the AC50 under setting [2] is 11.2 µM [rising, partial curve].

On to `COc1ccc(-n2c(/C=C/c3cccc4ccccc34)nc3ccccc3c2=O)cc1OC`, for which the AC50 under setting [1] was 1 µM [falling, full curve, poor fit].

Regarding `Cc1ccc(NC(=O)c2ccc(NCCN)c([N+](=O)[O-])c2)cc1`, the AC50 under setting [2] is 12.6 µM [rising, single point].

On to `COc1ccc(CNC(=O)COC(=O)CCc2c[nH]c3ccccc23)cc1`, for which, under setting [1], the AC50 was 35.5 µM [rising, single point].

As for `Cc1cc(C)n(-c2ccc(C(=O)Nc3ccc(S(=O)(=O)N(C)C)cc3)cc2)n1`, the AC50 under setting [1] is 20 µM [rising, partial curve, poor fit] and the AC50 under setting [2] was 15.8 µM [rising, partial curve].

As for `COc1ccc(CCN(C)c2ccc(S(=O)(=O)N3CCCC3)cc2[N+](=O)[O-])cc1OC`, the AC50 is, setting by setting: under setting [1], 12.6 µM [rising, single point]; under setting [2], 22.4 µM [rising, single point].

In the case of `O=C1/C(=C\c2cccs2)SC(=S)N1C1CCS(=O)(=O)C1` (stereo not drawn), the AC50 under setting [1] is 11.2 µM [falling, single point].
